{
  "sequences": {"note": "Chains of the proteins cited; added tags and fusions are not shown.", "UniProt Q9Z0J4": "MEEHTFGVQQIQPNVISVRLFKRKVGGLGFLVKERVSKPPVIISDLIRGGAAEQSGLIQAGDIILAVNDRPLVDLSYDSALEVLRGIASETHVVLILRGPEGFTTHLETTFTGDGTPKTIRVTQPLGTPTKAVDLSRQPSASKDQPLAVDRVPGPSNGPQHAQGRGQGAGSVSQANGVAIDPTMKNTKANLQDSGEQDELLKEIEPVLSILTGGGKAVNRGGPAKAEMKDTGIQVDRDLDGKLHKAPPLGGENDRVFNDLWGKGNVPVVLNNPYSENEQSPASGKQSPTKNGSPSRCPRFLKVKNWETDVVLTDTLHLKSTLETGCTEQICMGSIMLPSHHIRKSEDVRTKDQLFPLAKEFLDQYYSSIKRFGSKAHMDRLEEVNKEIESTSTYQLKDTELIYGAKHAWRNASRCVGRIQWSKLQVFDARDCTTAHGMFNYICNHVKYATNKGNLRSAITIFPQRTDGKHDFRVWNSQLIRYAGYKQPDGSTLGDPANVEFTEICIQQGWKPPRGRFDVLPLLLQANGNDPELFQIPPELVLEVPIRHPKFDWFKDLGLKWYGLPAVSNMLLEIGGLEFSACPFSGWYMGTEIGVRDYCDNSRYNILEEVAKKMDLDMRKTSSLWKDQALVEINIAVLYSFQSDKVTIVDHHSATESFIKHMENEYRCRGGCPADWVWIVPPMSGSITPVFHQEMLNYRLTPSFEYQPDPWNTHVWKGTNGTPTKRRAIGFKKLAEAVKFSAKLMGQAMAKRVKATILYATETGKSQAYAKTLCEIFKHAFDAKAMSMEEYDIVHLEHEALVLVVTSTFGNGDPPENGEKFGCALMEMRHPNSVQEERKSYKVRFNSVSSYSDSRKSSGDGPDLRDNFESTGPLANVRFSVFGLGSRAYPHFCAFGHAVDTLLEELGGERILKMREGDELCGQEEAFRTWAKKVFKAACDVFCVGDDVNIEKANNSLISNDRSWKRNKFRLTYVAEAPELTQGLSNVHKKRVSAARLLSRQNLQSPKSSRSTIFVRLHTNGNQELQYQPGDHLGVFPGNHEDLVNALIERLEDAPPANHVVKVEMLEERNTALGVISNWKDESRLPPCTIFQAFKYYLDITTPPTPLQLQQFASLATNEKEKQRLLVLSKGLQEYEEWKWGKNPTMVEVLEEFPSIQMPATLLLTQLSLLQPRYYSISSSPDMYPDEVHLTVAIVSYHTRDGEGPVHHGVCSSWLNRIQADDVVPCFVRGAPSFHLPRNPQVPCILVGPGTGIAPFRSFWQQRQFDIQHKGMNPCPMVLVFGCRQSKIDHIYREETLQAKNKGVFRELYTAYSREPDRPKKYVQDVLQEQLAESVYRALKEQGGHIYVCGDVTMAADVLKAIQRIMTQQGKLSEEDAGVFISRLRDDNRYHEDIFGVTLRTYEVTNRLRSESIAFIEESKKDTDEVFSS", "UniProt Q99104": "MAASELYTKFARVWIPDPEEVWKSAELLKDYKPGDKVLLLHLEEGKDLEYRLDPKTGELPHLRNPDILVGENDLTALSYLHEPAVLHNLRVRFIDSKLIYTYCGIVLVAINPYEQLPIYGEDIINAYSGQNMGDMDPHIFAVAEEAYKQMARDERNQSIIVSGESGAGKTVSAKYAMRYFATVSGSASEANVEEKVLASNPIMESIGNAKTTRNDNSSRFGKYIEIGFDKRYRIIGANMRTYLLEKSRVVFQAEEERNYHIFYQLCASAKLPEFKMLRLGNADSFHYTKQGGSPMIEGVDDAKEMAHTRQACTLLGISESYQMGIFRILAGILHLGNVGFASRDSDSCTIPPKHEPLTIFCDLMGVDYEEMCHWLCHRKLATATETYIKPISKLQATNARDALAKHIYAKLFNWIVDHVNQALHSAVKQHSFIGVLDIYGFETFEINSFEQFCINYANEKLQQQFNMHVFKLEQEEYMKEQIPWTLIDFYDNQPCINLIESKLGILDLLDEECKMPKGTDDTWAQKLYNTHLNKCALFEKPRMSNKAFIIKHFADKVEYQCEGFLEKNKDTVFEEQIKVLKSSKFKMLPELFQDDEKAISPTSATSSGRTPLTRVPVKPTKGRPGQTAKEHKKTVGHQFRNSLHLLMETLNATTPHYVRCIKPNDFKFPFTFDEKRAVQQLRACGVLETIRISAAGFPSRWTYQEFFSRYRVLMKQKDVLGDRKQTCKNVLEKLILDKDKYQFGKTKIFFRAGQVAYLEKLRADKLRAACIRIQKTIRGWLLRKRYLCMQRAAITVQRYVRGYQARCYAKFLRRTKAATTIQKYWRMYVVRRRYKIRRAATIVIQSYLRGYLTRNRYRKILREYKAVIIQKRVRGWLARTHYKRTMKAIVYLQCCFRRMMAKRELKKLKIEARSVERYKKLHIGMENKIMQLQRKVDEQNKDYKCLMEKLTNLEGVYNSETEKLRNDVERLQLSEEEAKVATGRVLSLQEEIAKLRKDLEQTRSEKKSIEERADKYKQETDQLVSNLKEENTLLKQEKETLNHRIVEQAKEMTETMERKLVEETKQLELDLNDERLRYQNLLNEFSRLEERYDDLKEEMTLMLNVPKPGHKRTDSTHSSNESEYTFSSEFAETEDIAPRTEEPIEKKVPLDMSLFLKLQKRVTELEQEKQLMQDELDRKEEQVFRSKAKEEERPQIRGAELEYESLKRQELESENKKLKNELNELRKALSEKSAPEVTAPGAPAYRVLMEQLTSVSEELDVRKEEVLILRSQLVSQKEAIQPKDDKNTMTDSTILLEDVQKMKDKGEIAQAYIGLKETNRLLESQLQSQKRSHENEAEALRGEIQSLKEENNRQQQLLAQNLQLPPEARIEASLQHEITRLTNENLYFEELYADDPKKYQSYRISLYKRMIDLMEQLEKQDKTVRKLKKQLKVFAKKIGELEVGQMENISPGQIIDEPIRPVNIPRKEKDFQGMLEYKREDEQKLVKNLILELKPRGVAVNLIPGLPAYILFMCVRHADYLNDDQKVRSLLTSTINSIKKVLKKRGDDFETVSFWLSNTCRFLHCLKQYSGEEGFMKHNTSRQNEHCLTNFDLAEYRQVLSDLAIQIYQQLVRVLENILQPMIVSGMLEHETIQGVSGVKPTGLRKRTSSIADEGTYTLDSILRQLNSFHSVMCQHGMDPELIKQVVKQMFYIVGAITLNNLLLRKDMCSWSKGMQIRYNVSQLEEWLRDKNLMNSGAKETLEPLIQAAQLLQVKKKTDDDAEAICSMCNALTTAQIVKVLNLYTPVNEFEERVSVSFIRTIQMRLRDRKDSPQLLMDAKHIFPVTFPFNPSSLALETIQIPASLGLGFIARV"},
  "source": "paper PMC3916320",
  "molecular_target": "neuronal nitric oxide synthase (nNOS) of gastric fundus (mouse (endogenous in C57BL/6J gastric fundus)) (UniProt Q9Z0J4)",
  "test": "co-IP; anti-nNOS antibody covalently coupled to M-270 epoxy Dynabeads, incubated 1 hour at 4°C with tissue lysates of WT mouse fundus (1.7 mg/ml) or CCP (3.4 mg/ml); IP extraction buffer with 100 mM NaCl, 2 mM MgCl2, 1 mM DTT, protease inhibitors; eluate blotted for myosin Va",
  "note": "Results are given in words; binding and its absence hold for the method and conditions named. In cells and extracts the contact can be indirect. Some results given as binding are weak or reduced against the parent protein; the word gives no strength.",
  "data": [
    {"substance": "myosin Va (from UniProt Q99104 1-1853)", "values": [
      {"measurement": "binding", "result": "binds"}
    ]}
  ]
}
